Measurements as given in paper PMC10746174.

Sequences of proteins named here, by UniProt entry; tags and fusion partners are left off. A change or cut given only in a name is not applied to a line headed by its entry.
UniProt P33927: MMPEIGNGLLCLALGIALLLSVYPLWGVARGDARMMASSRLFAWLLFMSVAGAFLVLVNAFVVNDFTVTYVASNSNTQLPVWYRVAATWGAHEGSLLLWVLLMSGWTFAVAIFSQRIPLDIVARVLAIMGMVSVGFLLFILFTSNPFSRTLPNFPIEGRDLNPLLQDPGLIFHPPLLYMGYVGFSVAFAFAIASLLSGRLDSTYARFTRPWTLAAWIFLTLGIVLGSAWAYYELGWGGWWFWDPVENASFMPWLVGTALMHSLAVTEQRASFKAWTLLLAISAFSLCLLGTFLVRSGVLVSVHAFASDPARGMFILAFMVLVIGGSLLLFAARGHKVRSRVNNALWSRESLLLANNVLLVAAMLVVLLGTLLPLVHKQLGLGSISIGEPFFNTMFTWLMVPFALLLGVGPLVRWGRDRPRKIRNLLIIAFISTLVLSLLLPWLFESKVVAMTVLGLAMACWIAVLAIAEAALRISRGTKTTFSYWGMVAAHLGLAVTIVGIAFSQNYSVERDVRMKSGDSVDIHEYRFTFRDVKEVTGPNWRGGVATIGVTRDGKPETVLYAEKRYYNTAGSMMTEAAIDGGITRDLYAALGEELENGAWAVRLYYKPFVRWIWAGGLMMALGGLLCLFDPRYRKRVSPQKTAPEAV

Legend:
Experiment in all cases: pull-down; CcmF:6×His (C-terminal tag) co-expressed with the complete System I pathway in E. coli Δccm (RK103) and affinity purified; 5 µg of purified protein separated by SDS-PAGE; immunoblots with α-CcmH and α-CcmE, heme stain for holoCcmE
[1] = target: CcmF:6×His A228C (E. coli) (UniProt P33927)
[2] = target: CcmF:6×His E233A (E. coli) (UniProt P33927)
[3] = target: CcmF:6×His E233C (E. coli) (UniProt P33927)
[4] = target: CcmF:6×His F241C (E. coli) (UniProt P33927)
[5] = target: CcmF:6×His G235A (E. coli) (UniProt P33927)
[6] = target: CcmF:6×His G235C (E. coli) (UniProt P33927)
[7] = target: CcmF:6×His L234C (E. coli) (UniProt P33927)
[8] = target: CcmF:6×His S249A (E. coli) (UniProt P33927)
[9] = target: CcmF:6×His S249C (E. coli) (UniProt P33927)
[10] = target: CcmF:6×His V245C (E. coli) (UniProt P33927)
[11] = target: CcmF:6×His W236A (E. coli) (UniProt P33927)
[12] = target: CcmF:6×His W236C (E. coli) (UniProt P33927)
[13] = target: CcmF:6×His W239A (E. coli) (UniProt P33927)
[14] = target: CcmF:6×His W239C (E. coli) (UniProt P33927)
[15] = target: CcmF:6×His W240A (E. coli) (UniProt P33927)
[16] = target: CcmF:6×His W240C (E. coli) (UniProt P33927)
[17] = target: CcmF:6×His Y232A (E. coli) (UniProt P33927)
[18] = target: CcmF:6×His wild type (E. coli) (UniProt P33927)

Measured: binding

B1: CcmH (protein, UniProt P0ABM9 19-350)
chain: TIDVLQFKDEAQEQQFRQLTEELRCPKCQNNSIADSNSMIATDLRQKVYELMQEGKSKKEIVDYMVARYGNFVTYDPPLTPLTVLLWVLPVVAIGIGGWVIYARSRRRVRVVPEAFPEQSVPEGKRAGYVVYLPGIVVALIVAGVSYYQTGNYQQVKIWQQATAQAPALLDRALDPKADPLNEEEMSRLALGMRTQLQKNPGDIEGWIMLGRVGMALGNASIATDAYATAYRLDPKNSDAALGYAEALTRSSDPNDNRLGGELLRQLVRTDHSNIRVLSMYAFNAFEQQRFGEAVAAWEMMLKLLPANDTRRAVIERSIAQAMQHLSPQESK
binds: all assays above

These are yes or no findings as the source states them, for the method shown. Binding seen in cells or lysates may run through a third protein. Binding calls can cover weak binding; strength is not graded here.
